At least one peptide structure holds a part that was inferred or is arguable (an end, a ring closure or a residue).
Test system: human small cell carcinoma (line NCI-H69)
Assay: effect on growth of tumors implanted in athymic mice
Format: in vivo
Settings: NCI-H69, fast growing tumor (0.33 mm/day), administered at the site of the tumor, FIGS. 1 and 2

SMILES: CC(C)[C@@H]1NC(=O)[C@H](CCCCN)NC(=O)[C@@H](Cc2c[nH]c3ccccc23)NC(=O)[C@H](Cc2ccc(O)cc2)NC(=O)[C@@H](NC(=O)[C@H](N)Cc2ccc3ccccc3c2)CSSC[C@@H](C(=O)N[C@H](C(N)=O)[C@@H](C)O)NC1=O [BIM23014C]
- effect on the tumor (growth): marked effect

Source: US5073541A, “Treatment of small cell lung cancer with somatostatin analogs” (Administrators of the Tulane Educational Fund, priority 1988, dated 1991)
